Source: PubChem BioAssay AID743255 (National Center for Advancing Translational Sciences (NCATS), 2014)
Screen size: about 390,000 compounds; about 910 (0.23%) were called active. The shares of active, inactive and inconclusive entries below differ from those in the screen. The call rests on the fitted dose curve; in most records, active means well fitted inhibition curve with a large enough effect; inconclusive means small, poorly fitted or top-dose-only effect; inactive means no such curve, though single readings can be large or run the other way. Potencies of inconclusive entries are doubtful fits and often do not repeat.

The chains behind the UniProt entries cited, without tags or fusion partners. Where a name states a change or a piece, a line headed by the entry shows the natural chain unless it says otherwise.
UniProt O94782: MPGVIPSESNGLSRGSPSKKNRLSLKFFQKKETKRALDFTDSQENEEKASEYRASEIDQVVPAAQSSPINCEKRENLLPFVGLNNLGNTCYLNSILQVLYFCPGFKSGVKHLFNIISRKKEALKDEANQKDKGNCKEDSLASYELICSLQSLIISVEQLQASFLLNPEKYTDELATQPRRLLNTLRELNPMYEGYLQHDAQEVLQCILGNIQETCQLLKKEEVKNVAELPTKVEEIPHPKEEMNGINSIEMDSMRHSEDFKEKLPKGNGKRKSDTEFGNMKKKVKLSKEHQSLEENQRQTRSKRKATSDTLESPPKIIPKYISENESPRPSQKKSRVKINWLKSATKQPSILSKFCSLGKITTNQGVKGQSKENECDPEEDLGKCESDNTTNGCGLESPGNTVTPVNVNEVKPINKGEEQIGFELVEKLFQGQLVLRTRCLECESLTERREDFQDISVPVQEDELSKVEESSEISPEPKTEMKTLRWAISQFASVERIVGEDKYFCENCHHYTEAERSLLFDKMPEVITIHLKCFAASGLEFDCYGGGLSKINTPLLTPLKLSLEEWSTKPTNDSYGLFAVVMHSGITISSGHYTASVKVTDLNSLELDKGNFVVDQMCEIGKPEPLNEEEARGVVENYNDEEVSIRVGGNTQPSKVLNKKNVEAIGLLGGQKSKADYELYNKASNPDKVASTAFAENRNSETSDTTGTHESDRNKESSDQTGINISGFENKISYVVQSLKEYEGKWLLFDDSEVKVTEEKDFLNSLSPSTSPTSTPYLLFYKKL

The molecules below were run against Ubiquitin carboxyl-terminal hydrolase 1 (Homo sapiens) (UniProt O94782) (assay: Inhibitors of USP1/UAF1: Primary Screen). Details: recombinant USP1/UAF1, Ub-Rhodamine cleavage fluorescence; activity change, negative = inhibition: at 57.1 µM (top of the series).
In short: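 1 nM enzyme complex + cpd, 15 min RT; start with Ub-Rho 150nM final; kinetic fluorescence ex 480/em 540, 6 reads q60 s. Buffer 50mM HEPES pH 7.8, 0.5mM EDTA, 0.1 mg/ml BSA, 1mM TCEP, 0.01% Tween-20.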
Further: nearly all actives have a fitted effect of over 60% in size.
On the % scale 0 is the no-effect control and ±100 the full control effect; potency means the concentration at half of the fitted maximal effect.

Row | SMILES | activity change, negative = inhibition | Potency
1 | COc1cc(NC(=O)c2cccc(Br)c2)nc(OC)n1 | inactive: -1.11% | –
2 | COc1ccc(CNC(=O)CCNS(=O)(=O)c2cc(Br)cnc2N)cc1 | inactive: -26.4% | –
3 | CCc1ccc(NC(=O)CSc2cn(CC(=O)N3CCOCC3)c3ccccc23)cc1 | – | inconclusive: 0.794 µM [inhibitor, full curve, poor fit]
4 | CN1c2ccccc2C(C)(C)C12C=Nc1c(ccc3ccccc13)O2 (stereo not drawn) | – | inconclusive: 39.8 µM [inhibitor, partial curve, poor fit]
5 | O=C(N/N=C/C(Br)=C/c1ccccc1)NC1CCCCC1 | – | inconclusive: 7.08 µM [inhibitor, full curve]
6 | COc1ccc(-n2nnnc2S(=O)(=O)Cc2ccc(C(=O)O)cc2)cc1 | inactive: -5.97% | –
7 | CCCCOC(=O)c1c(C)oc2ccc(NS(=O)(=O)c3ccc(F)cc3C)cc12 | – | inconclusive: 20 µM [inhibitor, single point]
8 | O=C(c1ccccc1NS(=O)(=O)c1ccc([N+](=O)[O-])cc1[N+](=O)[O-])N1O[C@@H]2C=C[C@H]1C2 | – | inconclusive: 35.5 µM [inhibitor, partial curve]
9 | COc1ccc(-c2nc3ccc(Cl)cn3c2NC2CCCCC2)cc1SC1CCCCC1 | – | inconclusive: 2.82 µM [inhibitor, full curve, poor fit]
10 | Cc1ccc(NC(=O)COC(=O)C2CCN(c3ccc(C(F)(F)F)cn3)CC2)cc1C | – | inconclusive: 50.1 µM [inhibitor, partial curve, poor fit]
11 | COc1ccc(C2CC(c3ccccc3Br)=NN2c2ccc(S(N)(=O)=O)cc2)cc1 (stereo not drawn) | – | inconclusive: 112 µM [inhibitor, partial curve]
12 | Cc1cnc(NC(=O)c2ccc3c(c2)OCCO3)s1 | inactive: -24.5% | –
13 | O=c1oc2c(O)c(O)cc3c(=O)oc4c(O)c(O)cc1c4c23 | – | inconclusive: 44.7 µM [inhibitor, partial curve, poor fit]
14 | O=[N+]([O-])c1ccc(CN2CCC(Cc3ccccc3)CC2)cc1 | inactive: -13.8% | –
15 | CNC(=S)N(CCc1c(C)[nH]c2ccccc12)Cc1cccnc1 | inactive: -6.64% | –
16 | c1ccc2c(CC3=NCCN3)cccc2c1 | – | inconclusive: 12.6 µM [inhibitor, partial curve, poor fit]
17 | O=C(Nc1ccc2nc3n(c(=O)c2c1)CCCC3)c1ccc(Cl)nc1 | – | inconclusive: 1.41 µM [inhibitor, full curve]
18 | Cc1ccc(/C=C/C(=O)OCC(=O)N2CC(=O)Nc3ccccc32)o1 | – | inconclusive: 35.5 µM [inhibitor, partial curve]
19 | O=C1[C@H]2[C@@H](c3ccc(C(F)(F)F)cc3)N[C@]3(CCCN(Cc4ccc(F)cc4)C3=O)[C@H]2C(=O)N1Cc1ccccc1 | – | inconclusive: 0.282 µM [inhibitor, full curve, poor fit]
20 | Cc1nn(CC(=O)NCCc2ccccc2Cl)c(=O)c2nn(-c3ccccc3)c(C)c12 | – | inconclusive: 8.91 µM [inhibitor, full curve]
21 | Cc1ccc(-n2c(C)cc(/C=N/Nc3ccc([N+](=O)[O-])cn3)c2C)cc1 | inactive: -18.3% | –

Row | SMILES | activity change, negative = inhibition | Potency
22 | COc1cc(C2C3CN(C)CC=C3C(C#N)=C(N)C2(C#N)C#N)ccc1OC(C)C (stereo not drawn) | – | inconclusive: 28.2 µM [inhibitor, partial curve]
23 | COc1ccc(C2C(C#N)=C(N)Oc3c2sc2nc(C)cc(C)c32)cc1 (stereo not drawn) | – | inconclusive: 35.5 µM [inhibitor, partial curve]
24 | CCCCC(NC(=O)Cc1c(C)c2cc3c(-c4ccccc4)coc3c(C)c2oc1=O)C(=O)O (stereo not drawn) | – | inconclusive: 70.8 µM [inhibitor, partial curve, poor fit]
25 | COC(=O)c1c(NC(=O)C(Cl)Cl)sc2c1C(C(=O)OC)CC2 (stereo not drawn) | inactive: -1.86% | –
26 | CC(C)c1cc(-c2nc(-c3ccccc3)no2)n[nH]1 | inconclusive: -15.9% [inhibitor] | –
27 | O=C1c2cccc3c(N4CCCCC4)ccc(c23)C(=O)N1c1ccccc1O | – | active: 28.2 µM
28 | Cc1nc(SCCC(=O)O)c2cc(-c3ccccc3)sc2n1 | inactive: -17.1% | –
29 | CCCSCCCNC(=O)c1ccc2c(c1)nc1n2CCCCC1 | inactive: 8.68% | –
30 | COc1ccc(CCNC(=O)c2ccc3c(c2)NC(=O)C(C(C)C)N3)cc1OC (stereo not drawn) | – | inconclusive: 8.91 µM [inhibitor, single point]
31 | O=C(CSc1nc(-c2ccccc2)[nH]c1-c1ccccc1)Nc1ccc2c(c1)OCCO2 | inactive: -18% | –
32 | CCOC(=O)C1=C(c2ccccc2)N=c2s/c(=C\c3cccc(O)c3)c(=O)n2C1c1cccs1 (stereo not drawn) | – | inconclusive: 56.2 µM [inhibitor, partial curve, poor fit]
33 | O=C(Nc1ccc2ncccc2c1)c1ccccc1Cl | inactive: -2.23% | –
34 | CCOC(=O)c1c(C)oc2c1c1c(c3ccccc32)OCN(CCCC(=O)O)C1 | inactive: -26.7% | –
35 | COc1ccc(OC)c(S(=O)(=O)n2nnc3cc(Cl)ccc32)c1 | – | inconclusive: 0.251 µM [inhibitor, full curve, poor fit]
36 | O=C(COc1ccccc1)Nc1nnc(S(=O)(=O)N2CCCCCC2)s1 | – | inconclusive: 39.8 µM [inhibitor, single point]
37 | O=C(Nc1cccc2cccnc12)c1ccc(F)cc1 | – | inconclusive: 2.82 µM [inhibitor, partial curve]
38 | Cc1cc(C(=O)N[C@H](c2ccccc2)[C@@]2(C)C[C@@H]2[C@@H](C)C(=O)Nc2ccc3ccccc3c2)n(C)n1 | – | inconclusive: 20 µM [inhibitor, partial curve]
39 | Cn1cnc(S(=O)(=O)N2CCC(C(=O)NCc3ccc(Cl)cc3)CC2)c1 | – | inconclusive: 2 µM [inhibitor, partial curve]
40 | CCN(CCNC(=O)c1ccc(C#N)cc1)c1cccc(C)c1 | – | inconclusive: 44.7 µM [inhibitor, partial curve]
41 | CC(=O)Nc1ccc(OCC(O)Cn2c3ccccc3c3ccccc32)cc1 (stereo not drawn) | – | inconclusive: 35.5 µM [inhibitor, partial curve]
42 | COn1c(SCc2ccc(C)cc2C)nc2ccccc2c1=O | – | inconclusive: 3.55 µM [inhibitor, full curve]

Row | SMILES | activity change, negative = inhibition | Potency
43 | CCO[C@@H]1c2c(ccc3ccc(=O)oc23)OC(C)(C)[C@H]1O | – | inconclusive: 50.1 µM [inhibitor, partial curve, poor fit]
44 | CC(=O)OC(C)[C@H]1CC[C@H]2[C@@H]3CC[C@H]4C[C@@H](OC(C)=O)CC[C@]4(C)C3=CC[C@]12C (stereo partly drawn) | – | inconclusive: 44.7 µM [inhibitor, partial curve, poor fit]
45 | Cc1c(N(C)S(=O)(=O)c2cc(C(=O)NCC3CCCO3)ccc2Cl)c(=O)n(-c2ccccc2)n1C (stereo not drawn) | inactive: -2.95% | –
46 | Cc1nc(-c2ccc(NC(=O)C3CC3)cc2)cs1 | – | inconclusive: 8.91 µM [inhibitor, partial curve, poor fit]
47 | COc1cccc(NC(=O)CSc2nc3ccc(NC(=O)c4ccco4)cc3s2)c1 | – | inconclusive: 25.1 µM [inhibitor, partial curve]
48 | CC(C)=CCC/C(C)=C/CNC(=O)C[C@H]1C[C@H](C(=O)N2CCCCC2)[C@@]2(C)c3[nH]c4cc(CCC(=O)N(C)C)ccc4c3CCN2C1=O | – | inconclusive: 79.4 µM [inhibitor, partial curve, poor fit]
49 | CCN(CC)C(=O)CSc1nnc2nnc3cc(Cl)ccc3n12 | – | inconclusive: 1 µM [inhibitor, full curve, poor fit]
50 | CCNC(=O)c1ccc(CSc2ccc(Cl)cc2)cc1 | inactive: -7.8% | –
51 | COc1cc(Cl)c(NC(=O)C2CCN(S(=O)(=O)c3c(C)noc3/C=C/c3ccccc3F)CC2)c(OC)c1 | – | inconclusive: 89.1 µM [inhibitor, partial curve, poor fit]
52 | O=c1c2ccccc2nc(SCc2ccc([N+](=O)[O-])cc2)n1-c1ccc(Cl)cc1 | – | inconclusive: 1 µM [inhibitor, partial curve]
53 | CCOC(=O)c1cnc(-n2nc(C)cc2C)[nH]c1=O | inactive: -24.7% | –
54 | COc1cccc(CNC(=O)CC(c2ccc(F)cc2)N2Cc3ccccc3C2=O)c1 (stereo not drawn) | inactive: 12.3% | –
55 | Cc1cc(OCCCSc2nc(-c3ccc(C(C)(C)C)cc3)nc3cc(=O)[nH]n23)ccc1Cl | – | inconclusive: 35.5 µM [inhibitor, single point]
56 | C(=Cc1c[nH]c2ccccc12)c1ccc2ccccc2n1 | – | inconclusive: 50.1 µM [inhibitor, partial curve, poor fit]
57 | c1ccc(OCc2nnc3n2N=C(c2ccccc2)CS3)cc1 | – | inconclusive: 4.47 µM [inhibitor, full curve, poor fit]
58 | COc1cc(/C=C2\SC(=S)N(NC(=O)c3ccc(O)cc3)C2=O)ccc1O | – | inconclusive: 35.5 µM [inhibitor, partial curve]
59 | Cc1ccc(C(C(=O)NC2CCCC2)N2CCc3ccccc32)cc1 (stereo not drawn) | – | inconclusive: 39.8 µM [inhibitor, partial curve, poor fit]
60 | Cc1noc(C)c1S(=O)(=O)N(C)C[C@H]1Oc2ccc(NS(=O)(=O)c3cn(C)cn3)cc2C(=O)N([C@H](C)CO)C[C@@H]1C | – | inconclusive: 14.1 µM [inhibitor, partial curve]
61 | Cc1ccc(Cn2c(SCC(=O)NCC3CCCO3)nc3ccsc3c2=O)cc1 (stereo not drawn) | – | inconclusive: 3.16 µM [inhibitor, full curve]
62 | CCc1ccccc1NC(=O)C1CCCN(S(=O)(=O)c2cccc3nsnc23)C1 (stereo not drawn) | – | inconclusive: 10 µM [inhibitor, partial curve, poor fit]
63 | Cc1cccc(-c2oc3ccccc3c2C#CCCO)c1 | – | inconclusive: 2.51 µM [inhibitor, full curve, poor fit]

Random excerpt: four compounds from above, in no set order.
Row | SMILES | activity change, negative = inhibition | Potency
41 | CC(=O)Nc1ccc(OCC(O)Cn2c3ccccc3c3ccccc32)cc1 (stereo not drawn) | – | inconclusive: 35.5 µM [inhibitor, partial curve]
28 | Cc1nc(SCCC(=O)O)c2cc(-c3ccccc3)sc2n1 | inactive: -17.1% | –
8 | O=C(c1ccccc1NS(=O)(=O)c1ccc([N+](=O)[O-])cc1[N+](=O)[O-])N1O[C@@H]2C=C[C@H]1C2 | – | inconclusive: 35.5 µM [inhibitor, partial curve]
61 | Cc1ccc(Cn2c(SCC(=O)NCC3CCCO3)nc3ccsc3c2=O)cc1 (stereo not drawn) | – | inconclusive: 3.16 µM [inhibitor, full curve]
